# Measurements: the supplement of paper PMC10032668
# Chains of the proteins cited; added tags and fusions are not shown.
# APEX1, P27695, UniProt P27695, whole entry: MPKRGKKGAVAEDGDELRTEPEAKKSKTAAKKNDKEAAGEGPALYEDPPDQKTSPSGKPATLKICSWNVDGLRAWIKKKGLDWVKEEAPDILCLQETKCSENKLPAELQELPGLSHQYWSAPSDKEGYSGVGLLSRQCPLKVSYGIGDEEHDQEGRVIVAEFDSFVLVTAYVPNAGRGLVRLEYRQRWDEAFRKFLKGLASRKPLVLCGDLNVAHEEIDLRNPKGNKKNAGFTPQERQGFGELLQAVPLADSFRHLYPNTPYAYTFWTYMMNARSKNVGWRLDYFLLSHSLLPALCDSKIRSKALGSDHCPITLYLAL
# CHMP2B, Q9UQN3, UniProt Q9UQN3, whole entry: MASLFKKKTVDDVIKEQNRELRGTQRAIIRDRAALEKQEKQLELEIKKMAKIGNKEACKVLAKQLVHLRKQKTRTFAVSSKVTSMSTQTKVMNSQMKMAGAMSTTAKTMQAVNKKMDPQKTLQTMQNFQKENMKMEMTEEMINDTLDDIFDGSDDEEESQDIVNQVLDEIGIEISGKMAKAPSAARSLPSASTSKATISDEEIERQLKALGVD
# CKS2, P33552, UniProt P33552, whole entry: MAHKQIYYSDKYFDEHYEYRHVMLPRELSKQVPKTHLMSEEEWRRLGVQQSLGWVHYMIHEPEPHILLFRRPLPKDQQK
# EIF1, P41567, UniProt P41567, whole entry: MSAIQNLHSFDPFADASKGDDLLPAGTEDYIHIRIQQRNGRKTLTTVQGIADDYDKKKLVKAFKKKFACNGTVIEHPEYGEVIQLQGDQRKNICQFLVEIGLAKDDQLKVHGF
# EIF4E, P06730, UniProt P06730, whole entry: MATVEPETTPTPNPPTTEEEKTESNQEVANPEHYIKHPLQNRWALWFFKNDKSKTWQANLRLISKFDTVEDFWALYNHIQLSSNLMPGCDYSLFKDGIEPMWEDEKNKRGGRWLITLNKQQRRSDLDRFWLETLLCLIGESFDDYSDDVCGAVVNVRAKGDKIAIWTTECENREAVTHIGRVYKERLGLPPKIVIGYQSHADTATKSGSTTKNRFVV
# HBS1L, Q9Y450, UniProt Q9Y450, whole entry: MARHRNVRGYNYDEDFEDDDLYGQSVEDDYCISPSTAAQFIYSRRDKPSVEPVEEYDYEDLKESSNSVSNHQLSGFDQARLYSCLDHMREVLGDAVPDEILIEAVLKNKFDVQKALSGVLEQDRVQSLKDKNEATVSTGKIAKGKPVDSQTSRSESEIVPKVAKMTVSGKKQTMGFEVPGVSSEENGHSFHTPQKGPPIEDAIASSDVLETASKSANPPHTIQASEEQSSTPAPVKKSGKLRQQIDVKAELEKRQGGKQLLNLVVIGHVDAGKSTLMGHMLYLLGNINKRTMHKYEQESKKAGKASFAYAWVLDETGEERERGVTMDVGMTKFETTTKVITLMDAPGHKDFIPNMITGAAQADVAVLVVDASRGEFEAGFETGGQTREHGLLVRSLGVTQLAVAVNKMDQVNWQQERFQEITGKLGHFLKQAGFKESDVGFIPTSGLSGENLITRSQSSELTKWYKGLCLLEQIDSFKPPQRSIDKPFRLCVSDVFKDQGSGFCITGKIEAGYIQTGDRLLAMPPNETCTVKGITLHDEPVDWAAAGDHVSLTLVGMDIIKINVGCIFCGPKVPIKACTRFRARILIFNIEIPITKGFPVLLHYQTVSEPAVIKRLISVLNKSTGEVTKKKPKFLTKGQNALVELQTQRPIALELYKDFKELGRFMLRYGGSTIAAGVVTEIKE
# HIST1H1E, P10412, UniProt P10412, whole entry: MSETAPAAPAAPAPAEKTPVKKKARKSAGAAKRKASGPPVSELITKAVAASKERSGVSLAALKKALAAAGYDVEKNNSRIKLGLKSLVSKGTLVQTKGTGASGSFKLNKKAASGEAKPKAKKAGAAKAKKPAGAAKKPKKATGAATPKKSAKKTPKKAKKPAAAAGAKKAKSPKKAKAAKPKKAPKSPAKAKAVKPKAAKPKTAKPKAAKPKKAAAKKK
# ± gives the standard deviation of the averaged measurements. This is one part of the list. The list holds hits alone, and they repeat only in part.
# B1: NAV2-AS2_2 (peptide)
# chain: VWEMTGFFLPDVLLS
# Columns and labels:
# Assay in all cases: PRISMA enrichment of interactor (LFQ) in peptide spot vs all other peptide spots (log2 fold change); higher = stronger / more specific binding of the interactor to the peptide
# [1] = biological target: ACAT1, P24752
# Experimental: (§1)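 PRISMA: 15-aa overlapping tiles (offset 8 aa) of 60 microproteins, plus SOS1/GLUT1 control peptides, were spot-synthesized on cellulose membranes in triplicate. Membranes were incubated with benzonase-treated HEK293T lysate, and bound proteins were identified by LC-MS/MS with LFQ. Enrichment is the log2 fold change of each protein in one spot versus all other spots. Only interactors passing the significance cutoff are listed.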
# [2] = biological target: ALYREF, Q86V81
# Experimental: as §1
# [3] = biological target: APEX1, P27695
# Experimental: as §1
# [4] = biological target: BOLA3, Q53S33
# Experimental: as §1
# [5] = biological target: C19orf53, Q9UNZ5
# Experimental: as §1
# [6] = biological target: CDCA5, Q96FF9
# Experimental: as §1
# [7] = biological target: CHMP2B, Q9UQN3
# Experimental: as §1
# [8] = biological target: CHTOP, Q9Y3Y2
# Experimental: as §1
# [9] = biological target: CIRBP, Q14011
# Experimental: as §1
# [10] = biological target: CKS2, P33552
# Experimental: as §1
# [11] = biological target: CLTA, P09496
# Experimental: as §1
# [12] = biological target: COA7, Q96BR5
# Experimental: as §1
# [13] = biological target: CSNK1A1, P48729
# Experimental: as §1
# [14] = biological target: CSRP2, Q16527
# Experimental: as §1
# [15] = biological target: CXorf56, Q9H5V9
# Experimental: as §1
# [16] = biological target: DECR1, Q16698
# Experimental: as §1
# [17] = biological target: DERPC, P0CG12
# Experimental: as §1
# [18] = biological target: DNAJC8, O75937
# Experimental: as §1
# [19] = biological target: EDF1, O60869
# Experimental: as §1
# [20] = biological target: EIF1, P41567
# Experimental: as §1
# [21] = biological target: EIF4E, P06730
# Experimental: as §1
# [22] = biological target: EIF4H, Q15056
# Experimental: as §1
# [23] = biological target: EMG1, Q92979
# Experimental: as §1
# [24] = biological target: EWSR1, Q01844
# Experimental: as §1
# [25] = biological target: FAM98B, Q52LJ0
# Experimental: as §1
# [26] = biological target: FBXO5, Q9UKT4
# Experimental: as §1
# [27] = biological target: FKBP2, P26885
# Experimental: as §1
# [28] = biological target: FUS, P35637
# Experimental: as §1
# [29] = biological target: G3BP2, Q9UN86
# Experimental: as §1
# [30] = biological target: GABARAPL2, P60520
# Experimental: as §1
# [31] = biological target: GIPC1, O14908
# Experimental: as §1
# [32] = biological target: HBS1L, Q9Y450
# Experimental: as §1
# [33] = biological target: HIST1H1E, P10412
# Experimental: as §1
# [34] = biological target: HMGB1, P09429
# Experimental: as §1
# [35] = biological target: HMGB2, P26583
# Experimental: as §1
# [36] = biological target: HNRNPA0, Q13151
# Experimental: as §1
# [37] = biological target: HNRNPA1, P09651
# Experimental: as §1
# [38] = biological target: HNRNPA2B1, P22626
# Experimental: as §1
# [39] = biological target: HNRNPA3, P51991
# Experimental: as §1
binder,measurement,setting,value
B1,PRISMA enrichment of interactor (log2),[1],5.56
same,PRISMA enrichment of interactor (log2),[2],7.4 ± 1.3
same,PRISMA enrichment of interactor (log2),[3],4.1
same,PRISMA enrichment of interactor (log2),[4],4.28
same,PRISMA enrichment of interactor (log2),[5],7.5
same,PRISMA enrichment of interactor (log2),[6],4.54
same,PRISMA enrichment of interactor (log2),[7],4.12
same,PRISMA enrichment of interactor (log2),[8],6.83
same,PRISMA enrichment of interactor (log2),[9],6.31
same,PRISMA enrichment of interactor (log2),[10],6.22
same,PRISMA enrichment of interactor (log2),[11],4.9
same,PRISMA enrichment of interactor (log2),[12],4.94
same,PRISMA enrichment of interactor (log2),[13],5.11
same,PRISMA enrichment of interactor (log2),[14],6.59
same,PRISMA enrichment of interactor (log2),[15],5.75
same,PRISMA enrichment of interactor (log2),[16],5.02
same,PRISMA enrichment of interactor (log2),[17],4.25
same,PRISMA enrichment of interactor (log2),[18],5.25
same,PRISMA enrichment of interactor (log2),[19],4.81
same,PRISMA enrichment of interactor (log2),[20],4.55
same,PRISMA enrichment of interactor (log2),[21],5.36
same,PRISMA enrichment of interactor (log2),[22],5.71
same,PRISMA enrichment of interactor (log2),[23],5.62
same,PRISMA enrichment of interactor (log2),[24],6.8
same,PRISMA enrichment of interactor (log2),[25],5.13
same,PRISMA enrichment of interactor (log2),[26],5.94
same,PRISMA enrichment of interactor (log2),[27],4.72
same,PRISMA enrichment of interactor (log2),[28],6.74
same,PRISMA enrichment of interactor (log2),[29],6.34
same,PRISMA enrichment of interactor (log2),[30],5.63
same,PRISMA enrichment of interactor (log2),[31],3.99
same,PRISMA enrichment of interactor (log2),[32],3.98
same,PRISMA enrichment of interactor (log2),[33],5.43
same,PRISMA enrichment of interactor (log2),[34],6.82
same,PRISMA enrichment of interactor (log2),[35],4.15
same,PRISMA enrichment of interactor (log2),[36],6.16
same,PRISMA enrichment of interactor (log2),[37],7.43
same,PRISMA enrichment of interactor (log2),[38],5.46
same,PRISMA enrichment of interactor (log2),[39],5.55

# Two records drawn at random from the list so far:
binder,measurement,setting,value
B1,PRISMA enrichment of interactor (log2),[15],5.75
same,PRISMA enrichment of interactor (log2),[8],6.83
